Reference: patent publication US20050059087A1, “Antibodies directed to the deletion mutants of epidermal growth factor receptor and uses thereof” (priority 2003, published 2005)
Changes are numbered by the printed parent chain. Results are given in words; binding and its absence hold for the method and conditions named. Some binding calls cover weakened binding; strength is not graded here. Each block holds one binder with its values, some of them ahead of it.

What was measured:
[1] = biological target: EGFRvIII-rabbit Fc fusion protein (human; rabbit) (UniProt P00533); experiment: Western blots of purified protein and cell lysate
[2] = biological target: EGFRvIII-rabbit Fc fusion protein (human; rabbit) (UniProt P00533); experiment: Western blot, EGFRvIII rabbit Fc fusion protein, native
[3] = biological target: EGFRvIII-rabbit Fc fusion protein (human; rabbit) (UniProt P00533); experiment: Western blot, EGFRvIII rabbit Fc fusion protein, reduced
[4] = biological target: EGFRvIII-rabbit Fc fusion protein (human; rabbit) (UniProt P00533); experiment: Western blot, purified EGFRvIII

B1: AB-EGFRvIII-XG1-095 (antibody, V domains shown)
VH: QVQLQESGPFLVKPSQTLSLTCTVSGGSISSGGYYWSWIRQHPGKGLEWIGFIYYRGNTYYNPSLKSRVTISVDTSKNQFSLKLSSVTAADTAVYYCARDGYCSRTGCYGGWFDPWGQGTLVTVSP
VL: DIVMTQTPLSSPVTLGQPASISCRSSQSLIHTDGNIYLSWLQQRPGQPPRLLIYKISNRFSGVPDRFSGSGAGTDFTLKISRVEAEDVGVYYCMQGTQFPITFGQGTRLEIK
binding [1]: binds | binding [2]: binds | binding [3]: binds

B2: SC-EGFRvIII-XG1-139 (antibody, V domains shown)
VH: EVQVLESGGGLVQPGGSLRLSCAASGFTFSSYAMSWVRQAPGKGLEWVSAISGSGGSTNYADSVKGRFTISRDNSKNTLYLQMNSLRAEDTAVYYCAGSSGWSEYWGQGTLVTVSS
VL: DIQMTQSPSSLSASVGDRVTITCRASQGIRNNLAWYQQKPGKAPKRLIYAASNLQSGVPSRFTGSGSGTEFTLIVSSLQPEDFATYYCLQHHSYPLTSGGGTKVEIK
binding [1]: binds | binding [3]: binds

Other lines, results leading:

binding [1]: binds | binding [2]: binds | binding [3]: binds
B3: SC-EGFRvIII-XG1-250 (antibody, V domains shown)
VH: B2 VH with V2G, V4L, L11W, G16E, M83V, A88V
VL: DIQMTQSPSSLSASVGDSVTITCRTSQGIRKNLGWYQQKPGKAPKRLIYAASSLQSGVPSRFSGSGSGTEFTLTISRLQPEDFATYYCLQHHSYPLTFGGGTRVEIR

binding [4]: binds | binding [2]: binds | binding [3]: binds
B4: SC-EGFRvIII-XG1-211 (antibody, V domains shown)
VH: QVQLVESGGGVVQPGRSLRLSCVASGFTLSSYGMHWVRQAPGKGLEWVAVTSYDGSKKDYADSAKGRFTISRDNSKNTLYLQMNSLRAEDTAVYYCVSEGYCSSSSCYKYYYYGMDVWGQGTTVTVSS
VL: DIVMTQSPLSLPVTPGEPASISCRSSQSLLYRNGNNYLDWYLQRPGQSPQLLIYLGSNRASGVPDRFSGSGSGTDFTLKISRVEAEDVGVYYCMQALQTPRTFGQGTKVEIK
